Results deposited as PubChem BioAssay AID1259254 (NCATS, 2017)

Assay: 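Gene knock-downs that lead to re-replication, shown by excess G2 DNA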 (primary screen)
Cell system: human HCT116 colorectal cancer cells
Reagents: single siRNA against human genes
Time to read-out: 3 days
Measured: 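Nuclei stained with Hoechst and imaged; cell-cycle phase assigned by DNA content; G2 share scaled per plate, non-targeting siRNA 0%, GMNN siRNA 100%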
Reading the numbers: G2 robust z-score and G2 cells, % of GMNN control: higher = more G2 cells, more excess DNA replication
Call rule: 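An siRNA counts as active if its G2 robust z-score lies at least 5 MADs above the screen median; here such calls match roughly 38% of GMNN control or more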
Here is one part, drawn at random, of about 59,000 reagents tested. Over the whole deposit, about 1,550 (2.6%) are marked active. 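G2 share is only a proxy for re-replication; each gene was hit by three separate siRNAs, and active genes were retested.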 Reagents against one gene are numbered here. Not all columns of the deposit are shown. The record does not give: the amount of reagent.

Gene	reagent	G2 robust z-score	G2 cells, % of GMNN control	Call
POLR2MP1	1	-1.04	-4.35	inactive
POLR2MP1	2	2.12	17.9	inactive
POLR2MP1	3	1.17	11.2	inactive
TAF5	1	-0.59	-1.19	inactive
TAF5	2	0.911	9.38	inactive
TAF5	3	0.366	5.54	inactive
ANKRD20A3P	1	1.98	16.9	inactive
ANKRD20A3P	2	0.829	8.8	inactive
ANKRD20A3P	3	1.35	12.5	inactive
PNPLA10P	1	-0.098	2.28	inactive
PNPLA10P	2	5.02	38.3	active
PNPLA10P	3	0.214	4.47	inactive
CRIPAK (retired record)	1	1.1	10.7	inactive
CRIPAK (retired record)	2	1.23	11.6	inactive
CRIPAK (retired record)	3	0.28	4.94	inactive
LINC00999	1	-0.3	0.855	inactive
LINC00999	2	-0.788	-2.58	inactive
LINC00999	3	0.0086	3.03	inactive

Part of the list above in another layout:
ANKRD20A3P #3 → G2 robust z-score: 1.35; G2 cells, % of GMNN control: 12.5; Call: inactive
PNPLA10P #1 → G2 robust z-score: -0.098; G2 cells, % of GMNN control: 2.28; Call: inactive
PNPLA10P #2 → G2 robust z-score: 5.02; G2 cells, % of GMNN control: 38.3; Call: active

Further records follow:
Gene	reagent	G2 robust z-score	G2 cells, % of GMNN control	Call
CAP1	1	0.0511	3.33	inactive
CAP1	2	1.07	10.5	inactive
CAP1	3	2.17	18.2	inactive
RPS8	1	6.24	46.9	active
RPS8	2	3.83	29.9	inactive
RPS8	3	4.58	35.2	inactive
TAF7	1	2.39	19.8	inactive
TAF7	2	0.173	4.18	inactive
TAF7	3	-0.0384	2.7	inactive
BORCS6	1	-0.619	-1.39	inactive
BORCS6	2	0.455	6.17	inactive
BORCS6	3	-0.218	1.44	inactive
